Data taken from article PMC5416842, “The ribosome biogenesis factor yUtp23/hUTP23 coordinates key interactions in the yeast and human pre-40S particle and hUTP23 contains an essential PIN domain” (Nucleic Acids Research, 2017).
No constants are given. Whether binding was seen depends on the method and setting. Binding seen in cells or lysates may run through a third protein. Some entries that bind do so weakly or less than the wild type. Tags and fused reporters may be left off the sequences shown. One block for each binder: values may come before it.

Tests used:
GST-tagged yeast yUtp23 = target: T1, GST-tagged yeast yUtp23 (S. cerevisiae, UniProt Q12339 1-254); assay: pull-down; GST-tagged yUtp23 or hUTP23 immobilised on glutathione sepharose (pre-blocked with BSA), incubated with [35S] in vitro translates for 1 h at 4°C in Buffer NB (20 mM Tris/HCl pH 7.6, 150 mM NaCl, 8.7% glycerol, 0.1% Tween20); five washes; SDS-PAGE, PhosphorImager; only the target purified
T1 construct: yUtp23, S. cerevisiae; open reading frame amplified from yeast genomic DNA; also called GST-yUtp23
T1 sequence (looked up): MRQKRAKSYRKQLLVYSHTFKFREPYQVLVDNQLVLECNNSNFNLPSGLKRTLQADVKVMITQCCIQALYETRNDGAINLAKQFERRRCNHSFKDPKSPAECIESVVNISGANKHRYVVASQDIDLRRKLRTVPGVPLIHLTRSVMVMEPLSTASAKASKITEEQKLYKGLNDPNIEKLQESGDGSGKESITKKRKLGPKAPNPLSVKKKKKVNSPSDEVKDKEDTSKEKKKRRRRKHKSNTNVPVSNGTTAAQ

GST-tagged human hUTP23 = target: T2, GST-tagged human hUTP23 (human, UniProt Q9BRU9 1-249); assay: as above
T2 construct: hUTP23, human; open reading frame amplified from human cDNA; also called GST-hUTP23
T2 sequence (looked up): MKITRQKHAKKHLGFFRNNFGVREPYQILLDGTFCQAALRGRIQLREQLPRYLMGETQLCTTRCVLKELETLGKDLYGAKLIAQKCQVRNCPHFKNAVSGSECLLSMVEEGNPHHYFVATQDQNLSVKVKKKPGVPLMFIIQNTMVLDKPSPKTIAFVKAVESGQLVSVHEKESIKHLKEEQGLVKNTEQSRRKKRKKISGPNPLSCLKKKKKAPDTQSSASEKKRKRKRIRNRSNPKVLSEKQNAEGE

binding (GST-tagged yeast yUtp23): binds
B1: yUtp23, in vitro translated with [35S] methionine (protein, UniProt Q12339 1-254)
chain: T1 sequence (looked up)
modifications: [35S] methionine label

binding (GST-tagged yeast yUtp23): binds
B2: yNhp2, in vitro translated with [35S] methionine (protein, UniProt P32495 1-156)
chain: MGKDNKEHKESKESKTVDNYEARMPAVLPFAKPLASKKLNKKVLKTVKKASKAKNVKRGVKEVVKALRKGEKGLVVIAGDISPADVISHIPVLCEDHSVPYIFIPSKQDLGAAGATKRPTSVVFIVPGSNKKKDGKNKEEEYKESFNEVVKEVQAL
modifications: [35S] methionine label

binding (GST-tagged yeast yUtp23): binds
B3: yRok1, in vitro translated with [35S] methionine (protein, UniProt P45818 1-564)
chain: MDIFRVLTRGASVKKESGPKAKAADYSVINGNDENHKEDNNESQIVKELDFFRNKRIISKVEDDREKTTENDSPNKEEKSGNDDGLIKPVITNTVEASALRKSYKGNVSGIDIPLPIGSFEDLISRFSFDKRLLNNLIENGFTEPTPIQCECIPVALNNRDVLACGPTGSGKTLAFLIPLVQQIIDDKQTAGLKGLIISPTKELANQIFIECFKLSYKIFLEKKRPLQVALLSKSLGAKLKNKVVSDKKYDIIISTPLRLIDVVKNEALDLSKVKHLIFDEADKLFDKTFVEQSDDILSACREPSLRKAMFSATIPSNVEEIAQSIMMDPVRVIIGHKEAANTNIEQKLIFCGNEEGKLIAIRQLVQEGEFKPPIIIFLESITRAKALYHELMYDRINVDVIHAERTALQRDRIIERFKTGELWCLICTDVLARGIDFKGVNLVINYDVPGSSQAYVHRIGRTGRGGRSGKAITFYTKQDSVAIKPIINVMKQSGCEVSEWMDKMAKMTRKEKESIKNGKAHKERKQITTVPKMDKAKRRRQQEMIAASKRRKNEELSKKHFSK
modifications: [35S] methionine label

binding (GST-tagged yeast yUtp23): binds
B4: yKri1, in vitro translated with [35S] methionine (protein, UniProt P42846 1-591)
chain: MPRKKSAAKRAREQAKKEAAVPATDTATIKTSETSATTVKPAIEASKSYVPSEDEEEDEEEEEEEDDYGELITDEVENGINQVLDAIKNNKTDKLLDPKVKFFEDPESAAAKLANREGKHKPIYLKDYHRMNILSGDALKEDDEEYEHATVDGKQSFVSQQREEKTQLLNEIKSAFSDEENEESSGDEDDGFLKKKEPSTKKEGKNLPDPTVNEENFLEEFVNQQAWIPKKGDKVISLDLNNNEEDDEEFEDAAEKFENAYNFRYEDPNAAEIISYARSQATLRRSDDSSRRRKREEKRKIKEQIKAEKETALQKKKTKKLNKLTDILEQLTKEYGAEINADMVKKITDTLLKNDFKEEEWDNVVAELFNEEFYQQEGKPTWNEDDEIMGDFYADADGDDQTEEGEVEKEQKEEDEEEGPKRKKSKKEEKLQKKKEKRKVNELVENALEQNKLALIEEVEKEEEERKSRSRTKEEQDLKFRYREVSPESFGLTAREIFAADDTDLNEFIGLKKFAPYRSKELRAKDKRKVMKARRLREWRKKTFKNENGLAPVEAEAGEKDEDTILIPVEKASKSKHKRGHSHKHKGHQKK
modifications: [35S] methionine label

binding (GST-tagged human hUTP23): binds
B5: hROK1/DDX52, in vitro translated with [35S] methionine (protein, UniProt Q9Y2R4 1-599)
chain: MDVHDLFRRLGAGAKFDTRRFSADAARFQIGKRKYDFDSSEVLQGLDFFGNKKSVPGVCGASQTHQKPQNGEKKEESLTERKREQSKKKRKTMTSEIASQEEGATIQWMSSVEAKIEDKKVQRESKLTSGKLENLRKEKINFLRNKHKIHVQGTDLPDPIATFQQLDQEYKINSRLLQNILDAGFQMPTPIQMQAIPVMLHGRELLASAPTGSGKTLAFSIPILMQLKQPANKGFRALIISPTRELASQIHRELIKISEGTGFRIHMIHKAAVAAKKFGPKSSKKFDILVTTPNRLIYLLKQDPPGIDLASVEWLVVDESDKLFEDGKTGFRDQLASIFLACTSHKVRRAMFSATFAYDVEQWCKLNLDNVISVSIGARNSAVETVEQELLFVGSETGKLLAVRELVKKGFNPPVLVFVQSIERAKELFHELIYEGINVDVIHAERTQQQRDNTVHSFRAGKIWVLICTALLARGIDFKGVNLVINYDFPTSSVEYIHRIGRTGRAGNKGKAITFFTEDDKPLLRSVANVIQQAGCPVPEYIKGFQKLLSKQKKKMIKKPLERESISTTPKCFLEKAKDKQKKVTGQNSKKKVALEDKS
modifications: [35S] methionine label
